Results taken from the supplement of paper PMC12067093, “Discovery and optimisation of a covalent ligand for TRIM25 and its application to targeted protein ubiquitination” (Chemical Science, 2025).
Some of the results follow.

Amino acid sequences for entries named in this document (tags omitted). A change or cut given only in a name is not applied to a line headed by its entry.
UniProt Q86YS7: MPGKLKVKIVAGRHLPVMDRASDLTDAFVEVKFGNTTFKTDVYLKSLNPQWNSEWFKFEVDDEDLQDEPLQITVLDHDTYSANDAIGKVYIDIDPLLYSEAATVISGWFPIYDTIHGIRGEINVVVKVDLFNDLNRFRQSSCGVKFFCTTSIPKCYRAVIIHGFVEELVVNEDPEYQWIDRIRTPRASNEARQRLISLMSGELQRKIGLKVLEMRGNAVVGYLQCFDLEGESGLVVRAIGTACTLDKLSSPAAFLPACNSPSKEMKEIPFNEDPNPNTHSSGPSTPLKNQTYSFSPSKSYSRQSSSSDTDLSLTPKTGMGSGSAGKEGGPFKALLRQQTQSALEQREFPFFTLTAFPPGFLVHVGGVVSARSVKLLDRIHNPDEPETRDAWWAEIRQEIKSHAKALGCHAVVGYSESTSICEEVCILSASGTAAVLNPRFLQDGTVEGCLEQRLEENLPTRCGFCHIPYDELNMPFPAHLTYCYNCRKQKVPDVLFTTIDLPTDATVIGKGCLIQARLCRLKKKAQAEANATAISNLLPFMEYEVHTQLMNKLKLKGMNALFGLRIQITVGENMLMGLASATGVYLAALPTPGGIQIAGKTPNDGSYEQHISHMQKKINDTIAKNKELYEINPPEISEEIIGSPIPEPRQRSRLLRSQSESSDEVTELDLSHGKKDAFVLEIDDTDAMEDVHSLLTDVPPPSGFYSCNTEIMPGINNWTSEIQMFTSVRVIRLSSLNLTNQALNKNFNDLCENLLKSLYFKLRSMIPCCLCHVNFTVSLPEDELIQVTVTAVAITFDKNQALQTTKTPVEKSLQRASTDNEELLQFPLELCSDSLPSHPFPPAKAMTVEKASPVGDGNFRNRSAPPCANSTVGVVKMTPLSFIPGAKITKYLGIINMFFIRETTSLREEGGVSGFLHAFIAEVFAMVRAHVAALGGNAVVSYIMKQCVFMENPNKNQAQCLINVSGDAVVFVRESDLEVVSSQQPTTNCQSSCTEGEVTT
UniProt P38398, whole entry, looked up: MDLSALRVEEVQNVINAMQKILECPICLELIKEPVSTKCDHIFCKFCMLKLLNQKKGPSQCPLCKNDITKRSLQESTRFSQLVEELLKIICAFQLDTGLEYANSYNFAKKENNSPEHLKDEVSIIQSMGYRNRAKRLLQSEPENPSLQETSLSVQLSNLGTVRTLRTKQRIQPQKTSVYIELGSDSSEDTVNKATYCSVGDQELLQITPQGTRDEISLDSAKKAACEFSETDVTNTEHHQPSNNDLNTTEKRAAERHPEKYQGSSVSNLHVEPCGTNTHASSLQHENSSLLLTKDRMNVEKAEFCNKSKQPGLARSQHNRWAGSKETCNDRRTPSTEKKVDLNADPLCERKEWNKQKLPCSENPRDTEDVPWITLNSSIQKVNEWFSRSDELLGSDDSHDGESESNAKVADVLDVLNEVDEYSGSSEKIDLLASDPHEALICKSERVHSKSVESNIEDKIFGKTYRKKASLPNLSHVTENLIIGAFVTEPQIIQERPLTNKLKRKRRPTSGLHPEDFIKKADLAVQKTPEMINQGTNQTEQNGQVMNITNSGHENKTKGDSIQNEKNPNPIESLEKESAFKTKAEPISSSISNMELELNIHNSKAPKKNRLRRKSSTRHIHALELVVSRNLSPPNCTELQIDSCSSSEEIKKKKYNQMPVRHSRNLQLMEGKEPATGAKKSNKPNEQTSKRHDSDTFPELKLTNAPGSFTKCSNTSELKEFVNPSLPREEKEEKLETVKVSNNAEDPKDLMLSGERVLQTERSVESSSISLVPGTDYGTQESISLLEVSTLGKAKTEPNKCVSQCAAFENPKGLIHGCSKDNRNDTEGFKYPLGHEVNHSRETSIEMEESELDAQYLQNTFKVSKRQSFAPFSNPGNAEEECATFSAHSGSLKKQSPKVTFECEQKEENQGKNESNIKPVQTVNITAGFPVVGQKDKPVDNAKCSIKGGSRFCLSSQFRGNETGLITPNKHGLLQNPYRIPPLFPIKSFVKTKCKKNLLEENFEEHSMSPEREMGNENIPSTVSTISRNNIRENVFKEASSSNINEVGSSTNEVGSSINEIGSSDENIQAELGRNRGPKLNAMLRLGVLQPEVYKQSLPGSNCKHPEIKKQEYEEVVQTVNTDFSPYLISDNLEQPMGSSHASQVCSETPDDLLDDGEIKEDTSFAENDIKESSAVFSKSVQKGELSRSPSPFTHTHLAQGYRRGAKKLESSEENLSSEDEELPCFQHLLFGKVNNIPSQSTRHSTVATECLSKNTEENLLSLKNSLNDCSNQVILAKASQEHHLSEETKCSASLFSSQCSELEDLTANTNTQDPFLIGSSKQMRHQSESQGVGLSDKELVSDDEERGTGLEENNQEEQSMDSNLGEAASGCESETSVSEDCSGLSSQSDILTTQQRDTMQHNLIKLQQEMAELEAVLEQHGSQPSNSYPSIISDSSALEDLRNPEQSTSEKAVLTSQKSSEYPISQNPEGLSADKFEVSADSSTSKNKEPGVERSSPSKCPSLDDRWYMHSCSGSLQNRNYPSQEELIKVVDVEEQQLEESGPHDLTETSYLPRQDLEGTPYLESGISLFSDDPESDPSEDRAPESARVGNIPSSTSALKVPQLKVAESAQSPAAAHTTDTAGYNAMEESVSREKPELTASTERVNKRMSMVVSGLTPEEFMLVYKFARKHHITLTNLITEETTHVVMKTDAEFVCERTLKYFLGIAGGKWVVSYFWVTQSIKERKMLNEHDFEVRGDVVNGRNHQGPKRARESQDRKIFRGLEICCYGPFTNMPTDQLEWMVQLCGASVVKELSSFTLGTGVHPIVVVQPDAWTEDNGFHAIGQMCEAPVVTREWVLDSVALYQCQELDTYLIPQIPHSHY
UniProt Q92994: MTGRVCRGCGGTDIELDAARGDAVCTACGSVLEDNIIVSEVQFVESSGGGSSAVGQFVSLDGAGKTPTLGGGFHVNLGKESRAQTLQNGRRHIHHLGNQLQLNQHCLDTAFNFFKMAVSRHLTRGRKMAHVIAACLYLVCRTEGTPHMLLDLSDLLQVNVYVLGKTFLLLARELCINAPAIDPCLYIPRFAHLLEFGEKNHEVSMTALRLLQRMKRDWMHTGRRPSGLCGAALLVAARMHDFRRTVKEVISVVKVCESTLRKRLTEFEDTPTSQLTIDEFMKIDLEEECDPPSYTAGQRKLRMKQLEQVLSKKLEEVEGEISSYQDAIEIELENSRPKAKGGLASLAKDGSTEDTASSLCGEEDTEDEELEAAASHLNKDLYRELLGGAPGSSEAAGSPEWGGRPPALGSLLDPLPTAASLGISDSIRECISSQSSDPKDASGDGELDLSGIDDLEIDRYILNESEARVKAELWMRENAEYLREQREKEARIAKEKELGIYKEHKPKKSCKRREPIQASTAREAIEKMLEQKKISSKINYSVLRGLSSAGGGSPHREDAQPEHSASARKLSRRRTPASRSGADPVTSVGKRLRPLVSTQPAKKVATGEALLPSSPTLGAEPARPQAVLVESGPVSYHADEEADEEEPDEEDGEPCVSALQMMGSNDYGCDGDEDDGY
UniProt O95696: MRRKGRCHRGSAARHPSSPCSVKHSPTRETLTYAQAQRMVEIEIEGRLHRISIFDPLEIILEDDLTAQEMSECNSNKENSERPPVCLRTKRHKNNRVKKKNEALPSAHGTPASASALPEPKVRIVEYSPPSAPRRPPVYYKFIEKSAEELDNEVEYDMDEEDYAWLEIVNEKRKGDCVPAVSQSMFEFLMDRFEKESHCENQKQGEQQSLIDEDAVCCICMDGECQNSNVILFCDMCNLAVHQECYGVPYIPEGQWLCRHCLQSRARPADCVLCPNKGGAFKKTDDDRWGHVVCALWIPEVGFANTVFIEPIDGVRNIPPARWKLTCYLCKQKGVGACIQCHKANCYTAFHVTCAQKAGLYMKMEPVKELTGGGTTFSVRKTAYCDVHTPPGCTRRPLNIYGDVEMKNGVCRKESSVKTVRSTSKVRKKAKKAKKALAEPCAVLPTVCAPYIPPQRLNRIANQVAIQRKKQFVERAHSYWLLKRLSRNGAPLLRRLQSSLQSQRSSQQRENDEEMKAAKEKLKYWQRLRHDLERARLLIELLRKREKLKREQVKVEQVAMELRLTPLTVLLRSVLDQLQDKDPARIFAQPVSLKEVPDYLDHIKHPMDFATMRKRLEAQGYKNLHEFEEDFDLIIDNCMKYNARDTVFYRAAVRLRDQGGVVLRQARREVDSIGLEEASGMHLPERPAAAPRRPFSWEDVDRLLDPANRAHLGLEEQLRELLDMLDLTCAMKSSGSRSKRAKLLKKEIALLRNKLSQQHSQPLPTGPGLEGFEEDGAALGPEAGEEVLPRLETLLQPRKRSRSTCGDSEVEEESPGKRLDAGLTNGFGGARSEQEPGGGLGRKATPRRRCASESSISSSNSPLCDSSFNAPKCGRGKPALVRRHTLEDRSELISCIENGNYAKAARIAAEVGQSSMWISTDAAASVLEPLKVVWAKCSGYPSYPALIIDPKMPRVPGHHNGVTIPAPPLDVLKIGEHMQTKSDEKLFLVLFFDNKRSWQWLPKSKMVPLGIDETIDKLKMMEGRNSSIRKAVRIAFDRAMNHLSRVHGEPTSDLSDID
UniProt Q86VP6: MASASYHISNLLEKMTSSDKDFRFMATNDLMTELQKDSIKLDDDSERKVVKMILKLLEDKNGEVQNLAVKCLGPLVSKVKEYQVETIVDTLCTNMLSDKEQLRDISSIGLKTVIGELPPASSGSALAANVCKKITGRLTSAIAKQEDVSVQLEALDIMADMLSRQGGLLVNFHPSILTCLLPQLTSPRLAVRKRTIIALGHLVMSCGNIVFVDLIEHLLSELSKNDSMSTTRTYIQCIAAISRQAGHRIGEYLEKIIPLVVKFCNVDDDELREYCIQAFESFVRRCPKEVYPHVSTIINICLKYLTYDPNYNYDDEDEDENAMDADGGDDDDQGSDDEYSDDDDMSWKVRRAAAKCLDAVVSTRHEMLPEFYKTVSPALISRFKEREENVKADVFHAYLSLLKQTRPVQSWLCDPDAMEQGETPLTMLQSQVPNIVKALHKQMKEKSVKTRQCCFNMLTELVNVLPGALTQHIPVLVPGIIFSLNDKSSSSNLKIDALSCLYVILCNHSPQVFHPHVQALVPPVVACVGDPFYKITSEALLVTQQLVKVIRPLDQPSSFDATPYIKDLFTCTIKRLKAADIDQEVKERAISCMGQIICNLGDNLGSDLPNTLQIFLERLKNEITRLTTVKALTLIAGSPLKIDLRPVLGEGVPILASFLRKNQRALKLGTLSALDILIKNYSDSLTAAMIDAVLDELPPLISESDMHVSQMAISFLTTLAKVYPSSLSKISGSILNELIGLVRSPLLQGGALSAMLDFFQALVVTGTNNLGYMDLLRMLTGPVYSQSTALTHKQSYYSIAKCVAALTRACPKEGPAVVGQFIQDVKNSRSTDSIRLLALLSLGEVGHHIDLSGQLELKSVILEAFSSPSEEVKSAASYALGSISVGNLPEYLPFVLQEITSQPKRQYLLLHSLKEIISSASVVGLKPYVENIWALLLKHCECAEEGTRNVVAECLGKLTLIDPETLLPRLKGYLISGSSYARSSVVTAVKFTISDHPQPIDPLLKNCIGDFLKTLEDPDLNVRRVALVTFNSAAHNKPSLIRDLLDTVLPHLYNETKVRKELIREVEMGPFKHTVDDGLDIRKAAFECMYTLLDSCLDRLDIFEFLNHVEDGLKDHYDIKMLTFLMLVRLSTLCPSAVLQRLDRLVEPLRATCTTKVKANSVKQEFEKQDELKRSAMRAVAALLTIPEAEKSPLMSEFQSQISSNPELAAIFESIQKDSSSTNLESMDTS
UniProt Q06187: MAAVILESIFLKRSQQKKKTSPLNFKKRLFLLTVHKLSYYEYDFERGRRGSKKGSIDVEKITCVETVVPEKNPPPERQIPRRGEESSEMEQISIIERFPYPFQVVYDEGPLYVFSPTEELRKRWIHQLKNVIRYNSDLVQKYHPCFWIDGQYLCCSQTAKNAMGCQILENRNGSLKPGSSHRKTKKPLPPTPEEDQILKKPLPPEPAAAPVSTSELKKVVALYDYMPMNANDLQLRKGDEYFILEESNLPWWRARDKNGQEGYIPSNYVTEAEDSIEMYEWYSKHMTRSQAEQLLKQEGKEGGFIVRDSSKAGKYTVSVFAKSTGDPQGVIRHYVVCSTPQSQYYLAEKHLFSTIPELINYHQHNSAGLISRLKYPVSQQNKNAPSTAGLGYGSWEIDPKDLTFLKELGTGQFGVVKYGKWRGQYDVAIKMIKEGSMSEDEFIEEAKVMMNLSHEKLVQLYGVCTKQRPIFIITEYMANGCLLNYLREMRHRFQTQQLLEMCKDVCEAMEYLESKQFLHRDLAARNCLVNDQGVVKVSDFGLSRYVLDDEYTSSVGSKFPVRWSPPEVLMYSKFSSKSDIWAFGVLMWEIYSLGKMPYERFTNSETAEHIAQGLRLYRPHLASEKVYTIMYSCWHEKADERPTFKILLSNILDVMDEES

Compound: CC1Cc2ccccc2N1C(=O)C1CCCN(C1)C(=O)CCl (mixture of isomers) [TRIM25 ligand 11 (diastereomer mixture)]
Assay: probe-labelled cysteine peptide fold change vs DMSO (competition) (log2 fold change); higher = less target engagement (more negative = stronger competition)
Conditions: THP-1, incubation time: 4 h
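Note: competitive chemoproteomic profiling in live THP-1 cells with an iodoacetamide desthiobiotin (IA-DTB) probe, comparing probe-labelled peptide intensities in compound-treated cells against DMSO-treated controls.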

Row | Target | probe-labelled cysteine peptide fold change (10 µM) | probe-labelled cysteine peptide fold change (50 µM)
1 | CAMK1_Q14012_355_DCCVEPGTELSPTLPHQL (UniProt Q14012) | 0.166 | 0.0671
2 | C2CD2_Q9Y426_244_EAQNLQCAASTAQESCPPKPPR (UniProt Q9Y426) | -0.108 | -0.0779
3 | C2CD5_Q86YS7_243_AIGTACTLDK (UniProt Q86YS7) | 0.0372 | 0.0778
4 | BRCA1_P38398_348_KVDLNADPLCER (UniProt P38398) | -0.121 | -0.3
5 | BUB1_O43683_407_DAGCVNK (UniProt O43683) | -0.0684 | 0.012
6 | CAMK2D_Q13557_127_EYYSEADASHCIQQILESVNHCHLNGIVHR (UniProt Q13557) | 0.0777 | -0.0821
7 | CAMK2G_Q13555_7_ATTATCTR (UniProt Q13555) | 0.042 | -0.225
8 | BRCA1_P38398_1251_HSTVATECLSK (UniProt P38398) | 0.0446 | -0.0577
9 | BRF1_Q92994_106_HIHHLGNQLQLNQHCLDTAFNFFK (UniProt Q92994) | 0.0361 | 0.0853
10 | CACNA1G_O43497_1019_CLALVSLGEHPELR (UniProt O43497) | 0.0446 | -0.0139
11 | CAD_P27708_1501_EDFASGTAAALAGGITMVCAMPNTRPPIIDAPALALAQK (UniProt P27708) | 0.215 | 0.36
12 | BRD2_P25440_706_YVLSCLR (UniProt P25440) | -0.118 | -0.0436
13 | C8orf37_Q96NL8_33_GCGGGTHSSDR (UniProt Q96NL8) | 0.133 | -0.242
14 | CAD_P27708_484_NERPDGVLLTFGGQTALNCGVELTK (UniProt P27708) | -0.00656 | 0.00784
15 | BRWD3_Q6RI45_1147_DEECER (UniProt Q6RI45) | 0.0184 | 0.127
16 | CALR_P27797_163_CKDDEFTHLYTLIVR (UniProt P27797) | 0.0557 | 0.0851
17 | BUB3_O43684_62_YQHTGAVLDCAFYDPTHAWSGGLDHQLK (UniProt O43684) | -0.0182 | -0.0029
18 | BUB1_O43683_1013_NEGGECKPEGLFR (UniProt O43683) | 0.0232 | 0.163
19 | BUB1B_O60566_767_EIELGNEDYCIKR (UniProt O60566) | -0.0942 | 0.0707
20 | BUD31_P41223_134_IIECTHCGCR (UniProt P41223) | 0.0669 | 0.255
21 | BRAT1_Q6PJG6_265_DPIPAAHSFVDLLLCVAR (UniProt Q6PJG6) | -0.0702 | -0.00745

Row | Target | probe-labelled cysteine peptide fold change (10 µM) | probe-labelled cysteine peptide fold change (50 µM)
22 | C7orf50_Q9BRJ6_107_SGAELALDYLCR (UniProt Q9BRJ6) | 0.00661 | 0.0359
23 | BRD1_O95696_638_NLHEFEEDFDLIIDNCMK (UniProt O95696) | 0.161 | -0.0554
24 | CABIN1_Q9Y6J0_829_LTNNLIQVIDCSMAVQEEAK (UniProt Q9Y6J0) | 0.0505 | -0.162
25 | CA13_Q8N1Q1_232_SLLCTAEGEAAAFLVSNHRPPQPLK (UniProt Q8N1Q1) | 0.0472 | -0.0948
26 | C6orf120_Q7Z4R8_99_GDADLYVSASSLHPSFDDYELQSATCGPDAVSIPAHFR (UniProt Q7Z4R8) | 0.0909 | -0.109
27 | C16orf62_Q7Z3J2_925_HGCADTR (UniProt Q7Z3J2) | -0.191 | -0.133
28 | BUD31_P41223_78_ELYEYCIK (UniProt P41223) | 0.0518 | -0.0462
29 | C17orf75_Q9HAS0_265_FLSVASLQGLIHEGTMTSLCMAMTEEQHK (UniProt Q9HAS0) | -0.00782 | -0.264
30 | BTAF1_O14981_371_ETCAQTLGVVLK (UniProt O14981) | -0.0373 | -0.0212
31 | C1orf123_Q9NWV4_33+36_CGNCGEISDK (UniProt Q9NWV4) | 0.0401 | 0.0357
32 | C2CD5_Q86YS7_449_FLQDGTVEGCLEQR (UniProt Q86YS7) | 0.1 | -0.145
33 | C11orf68_Q9H3H3_263_WHLCPTLYESR (UniProt Q9H3H3) | -0.0207 | 0.1
34 | CALCOCO2_Q13137_163_DSCISLQK (UniProt Q13137) | -0.0359 | 0.0121
35 | BRPF1_P55201_413_ANCYTAFHVTCAQQAGLYMK (UniProt P55201) | -0.0512 | -0.203
36 | C9orf64_Q5T6V5_170_FGGSFLNCVR (UniProt Q5T6V5) | 0.0334 | 0.145
37 | BRF1_Q92994_9_GCGGTDIELDAAR (UniProt Q92994) | 0.0987 | -0.26
38 | BSDC1_Q9NW68_49_DLTEFTQVVQHDTACTIAATASVVK (UniProt Q9NW68) | 0.00715 | -0.279
39 | C5orf51_A6NDU8_268_KYVSVCEGPLK (UniProt A6NDU8) | -0.0144 | 0.177
40 | C1GALT1_Q9NS00_232_CTHSSSIEDLALGR (UniProt Q9NS00) | 0.129 | -0.188
41 | C5orf22_Q49AR2_195_LALEDSENTASTNCDSSSEGLEK (UniProt Q49AR2) | 0.0758 | 0.0268
42 | BRAP_Q7Z569_47_TTLASAVACLEGK (UniProt Q7Z569) | -0.0997 | -0.0219

Row | Target | probe-labelled cysteine peptide fold change (10 µM) | probe-labelled cysteine peptide fold change (50 µM)
43 | CAD_P27708_787_MVDENCVGFDHTVKPVSDMELETPTDKR (UniProt P27708) | -0.00934 | -0.00423
44 | CABIN1_Q9Y6J0_1769_AGPTEPMDTSEATVCHSDLER (UniProt Q9Y6J0) | -0.0778 | -0.392
45 | BUD31_P41223_137+139_IIECTHCGCR (UniProt P41223) | 0.0997 | 0.0487
46 | CAMK2G_Q13555_549_WLNVHYHCSGAPAAPLQ (UniProt Q13555) | 0.238 | -0.121
47 | BRIP1_Q9BX63_401_EQVVILDEAHNIEDCAR (UniProt Q9BX63) | 0.0399 | -0.19
48 | C5_P01031_1553_KQTACKPEIAYAYK (UniProt P01031) | 0.466 | 0.416
49 | BUD31_P41223_119_DTNFGTNCICR (UniProt P41223) | -0.0667 | 0.0804
50 | C2CD2L_O14523_385_QLCPLTPGPGK (UniProt O14523) | -0.071 | -0.253
51 | BTBD10_Q9BSF8_86_TESQLTPCIR (UniProt Q9BSF8) | -0.149 | -0.433
52 | CAND1_Q86VP6_92_EYQVETIVDTLCTNMLSDK (UniProt Q86VP6) | 0.0772 | 0.136
53 | BTK_Q06187_506_DVCEAMEYLESK (UniProt Q06187) | 0.118 | 0.0518
54 | BRIX1_Q8TDN6_52_RHATAEEVEEEERDRIPGPVCK (UniProt Q8TDN6) | 0.0287 | -0.13
55 | BZW2_Q9Y6E2_270_LSQECPIK (UniProt Q9Y6E2) | 0.311 | 0.132
56 | BRD1_O95696_341_GVGACIQCHK (UniProt O95696) | 0.1 | 0.204
57 | C3orf58_Q8NDZ4_170_LLTPEAVEGWSDLVHCPSQR (UniProt Q8NDZ4) | -0.218 | 0.0117
58 | BUB3_O43684_270_RLCQFHR (UniProt O43684) | 0.0429 | 0.198
59 | BTAF1_O14981_862_VHTFAACAVVSLQQLPEK (UniProt O14981) | 0.084 | 0.0713
60 | BTK_Q06187_633_VYTIMYSCWHEK (UniProt Q06187) | 0.106 | -0.0459
61 | CAD_P27708_280_GHNQPCLLVGSGR (UniProt P27708) | -0.018 | 0.065
62 | C3_P01024_1458_VSHSEDDCLAFK (UniProt P01024) | 0.259 | 0.228
63 | C9orf78_Q9NZ63_145_NAEDCLYELPENIR (UniProt Q9NZ63) | -0.101 | -0.43

Row | Target | probe-labelled cysteine peptide fold change (10 µM) | probe-labelled cysteine peptide fold change (50 µM)
64 | CAD_P27708_1613_SVHICHVAR (UniProt P27708) | -0.102 | 0.397
65 | CACYBP_Q9HB71_154_TDTVLILCR (UniProt Q9HB71) | -0.142 | -0.00742
66 | BRD7_Q9NPI1_338_LVNSQCEFER (UniProt Q9NPI1) | 0.143 | 0.253
67 | BRMS1_Q9HCU9_60_SECVSEMLDLEK (UniProt Q9HCU9) | 0.0403 | -0.00198
68 | BUB1_O43683_698_LSQPAAGGVLTCEAELGVEACR (UniProt O43683) | -0.205 | 0.0685
69 | C6orf106_Q9H6K1_147_SLEPQEIADVSVQMCSPSR (UniProt Q9H6K1) | 0.0311 | 0.236
70 | BRIP1_Q9BX63_310_SCYFYHGVHK (UniProt Q9BX63) | 0.051 | 0.0323
71 | CAD_P27708_1455_VHVDCMTSQK (UniProt P27708) | 0.0559 | -0.0142
72 | BUB1B_O60566_775_EYLICEDYK (UniProt O60566) | 0.272 | 0.268
73 | BTAF1_O14981_109_LNFDRFDICR (UniProt O14981) | -0.151 | -0.329
74 | BUD31_P41223_139_IIECTHCGCR (UniProt P41223) | 0.0412 | -0.0128
75 | BRCA1_P38398_1697_TDAEFVCER (UniProt P38398) | 0.384 | 0.418
76 | CAND2_O75155_358_CIAALISSRPDLLPDFHCTLAPVLIR (UniProt O75155) | 0.164 | 0.095
77 | CAD_P27708_1374_VTAVDWHFEEAVDGECPPQR (UniProt P27708) | 0.00695 | -0.0687
78 | CAMK2B_Q13554_273_HPWVCQR (UniProt Q13554) | 0.194 | 0.117
79 | BRD1_O95696_199_ESHCENQK (UniProt O95696) | -0.101 | -0.027
80 | CAMSAP1_Q5T5Y3_1507_CDANHYIILFR (UniProt Q5T5Y3) | -0.195 | 0.0522
81 | BRCC3_P46736_240_ILCQEEQDAYR (UniProt P46736) | 0.133 | 0.0603
82 | CAND1_Q86VP6_71_CLGPLVSK (UniProt Q86VP6) | 0.134 | 0.162
83 | BTAF1_O14981_1626_QLLLDCGLGNGSTSESGTESVVAQHR (UniProt O14981) | 0.329 | 0.149
